This experiment addresses T1, nuclear factor erythroid 2-related factor 2 (mouse (endogenous in primary astrocytes)) (UniProt Q60795).
T1 sequence: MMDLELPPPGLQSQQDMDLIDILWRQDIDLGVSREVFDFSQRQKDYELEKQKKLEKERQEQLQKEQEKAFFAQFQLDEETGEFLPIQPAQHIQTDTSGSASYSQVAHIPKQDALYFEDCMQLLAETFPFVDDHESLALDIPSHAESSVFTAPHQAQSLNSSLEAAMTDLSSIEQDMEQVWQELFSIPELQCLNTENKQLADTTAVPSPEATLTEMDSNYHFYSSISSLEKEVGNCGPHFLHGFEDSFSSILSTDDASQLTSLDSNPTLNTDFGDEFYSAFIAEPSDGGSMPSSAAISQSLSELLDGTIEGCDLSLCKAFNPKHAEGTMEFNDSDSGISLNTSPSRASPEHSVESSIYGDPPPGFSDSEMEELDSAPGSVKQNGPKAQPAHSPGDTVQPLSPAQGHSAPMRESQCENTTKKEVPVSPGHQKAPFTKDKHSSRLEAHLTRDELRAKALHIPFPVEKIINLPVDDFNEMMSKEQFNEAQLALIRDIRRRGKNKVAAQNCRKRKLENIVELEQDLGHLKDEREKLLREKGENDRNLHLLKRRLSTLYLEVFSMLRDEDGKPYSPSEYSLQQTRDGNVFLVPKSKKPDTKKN
Put plainly: co-IP; lysates (1 mg protein) of primary mouse astrocytes treated according to experiment designs (30 uM hemin, with or without BM-MSCs coculture); precipitated with 1 ug rabbit anti-Nrf2 antibody or normal rabbit IgG for 12 h at 4 C, protein A/G agarose; Western blot with mouse anti-Cx43 monoclonal antibody. (In general: A western blot detects proteins with antibodies after separation by electrophoresis.)

Sequences of proteins named here, by UniProt entry; tags and fusion partners are left off.
UniProt P23242: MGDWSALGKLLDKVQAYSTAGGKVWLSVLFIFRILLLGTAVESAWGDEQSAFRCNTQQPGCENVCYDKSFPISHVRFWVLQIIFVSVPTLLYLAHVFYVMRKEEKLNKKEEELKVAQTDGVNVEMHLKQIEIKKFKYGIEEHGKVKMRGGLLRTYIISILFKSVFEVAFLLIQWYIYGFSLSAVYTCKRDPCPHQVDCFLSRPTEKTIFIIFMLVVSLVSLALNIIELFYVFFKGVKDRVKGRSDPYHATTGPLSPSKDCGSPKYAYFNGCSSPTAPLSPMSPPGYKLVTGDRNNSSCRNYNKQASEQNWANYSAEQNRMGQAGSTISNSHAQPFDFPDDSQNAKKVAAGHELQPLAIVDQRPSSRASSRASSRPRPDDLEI

These are yes or no findings as the source states them, for the method shown. In cells and extracts the contact can be indirect. Some binding calls cover weakened binding; strength is not graded here.

For connexin 43 (from UniProt P23242 1-382), the binding entry is on record as “binds”.

Source of the values: paper PMC7227447.
